According to patent publication US20210147817:
For at least one entry, the source does not settle the construct or the ends of the probe.

Biological target: 36H polymerase (Pyrococcus sp.) (UniProt P61875)
Assay: activity assay
Settings: PCR; no product at 200 uM added dUTP; purified recombinant protein

GAAGAGCCAAGGACAGGTAC / CCTCCAAATCAAGCCTCTAC [2 kb human genomic DNA amplicon, primer pair]
activity on this sequence: active
